According to paper PMC10999711:
Results are given in words; binding and its absence hold for the method and conditions named. In cells and extracts the contact can be indirect. Here binding means that the protein was enriched with, or labelled near, the bait; the list need not be complete.

By UniProt entry, the sequences of proteins in these tests, tags left out.
UniProt Q04206: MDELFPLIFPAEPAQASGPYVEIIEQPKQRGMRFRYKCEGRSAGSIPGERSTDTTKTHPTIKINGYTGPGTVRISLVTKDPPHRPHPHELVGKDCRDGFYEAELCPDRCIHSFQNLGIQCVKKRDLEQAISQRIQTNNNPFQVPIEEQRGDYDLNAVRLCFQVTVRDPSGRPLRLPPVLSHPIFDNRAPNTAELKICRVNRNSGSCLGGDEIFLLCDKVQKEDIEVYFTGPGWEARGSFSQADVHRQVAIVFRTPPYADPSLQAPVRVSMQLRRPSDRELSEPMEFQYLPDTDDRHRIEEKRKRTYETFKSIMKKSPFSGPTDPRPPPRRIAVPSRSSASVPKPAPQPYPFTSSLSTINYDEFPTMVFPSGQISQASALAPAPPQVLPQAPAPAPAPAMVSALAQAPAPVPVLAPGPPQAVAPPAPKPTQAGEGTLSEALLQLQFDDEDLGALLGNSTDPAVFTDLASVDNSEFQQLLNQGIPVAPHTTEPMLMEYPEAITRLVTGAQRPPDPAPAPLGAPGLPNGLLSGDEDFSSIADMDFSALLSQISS

B1: NFKBIB (protein, UniProt Q15653 1-356)
chain: MAGVACLGKAADADEWCDSGLGSLGPDAAAPGGPGLGAELGPGLSWAPLVFGYVTEDGDTALHLAVIHQHEPFLDFLLGFSAGTEYMDLQNDLGQTALHLAAILGETSTVEKLYAAGAGLCVAERRGHTALHLACRVGAHACARALLQPRPRRPREAPDTYLAQGPDRTPDTNHTPVALYPDSDLEKEEEESEEDWKLQLEAENYEGHTPLHVAVIHKDVEMVRLLRDAGADLDKPEPTCGRSPLHLAVEAQAADVLELLLRAGANPAARMYGGRTPLGSAMLRPNPILARLLRAHGAPEPEGEDEKSGPCSSSSDSDSGDEGDEYDDIVVHSSRSQTRLPPTPASKPLPDDPRPV
B2: NFKBIE (protein, UniProt O00221 1-500)
chain: MNQRRSESRPGNHRLQAYAEPGKGDSGGAGPLSGSARRGRGGGGAIRVRRPCWSGGAGRGGGPAWAVRLPTVTAGWTWPALRTLSSLRAGPSEPHSPGRRPPRAGRPLCQADPQPGKAARRSLEPDPAQTGPRPARAAGMSEARKGPDEAEESQYDSGIESLRSLRSLPESTSAPASGPSDGSPQPCTHPPGPVKEPQEKEDADGERADSTYGSSSLTYTLSLLGGPEAEDPAPRLPLPHVGALSPQQLEALTYISEDGDTLVHLAVIHEAPAVLLCCLALLPQEVLDIQNNLYQTALHLAVHLDQPGAVRALVLKGASRALQDRHGDTALHVACQRQHLACARCLLEGRPEPGRGTSHSLDLQLQNWQGLACLHIATLQKNQPLMELLLRNGADIDVQEGTSGKTALHLAVETQERGLVQFLLQAGAQVDARMLNGCTPLHLAAGRGLMGISSTLCKAGADSLLRNVEDETPQDLTEESLVLLPFDDLKISGKLLLCTD

Target: RELA (NF-κB p65) (human (endogenous in HeLa)) (UniProt Q04206)
Assay: affinity purification with mass spectrometry; coIP-MS: anti-RELA antibody (or control rabbit IgG) on Protein A/G magnetic beads, 200 μl HeLa cell lysate (1 μg/μl), 60 min at room temperature, washes with IP lysis buffer, TBST and 50 mM Tris-HCl pH 8.0, on-bead trypsin digestion with or without 0.02% LMNG, DIA-LC-MS/MS; four biological replicates

| Binder | binding |
| --- | --- |
| B1 | binds |
| B2 | binds |
